# Measured values reported in patent US20080286339A1, “METHODS AND DEVICES FOR THE SUSTAINED RELEASE OF MULTIPLE DRUGS” (priority 2003, published 2008).
# Like-named read-outs stand apart in the source and are kept apart here. At least one compound was matched to its structure with a doubt left.
# Experiments:
# [1] = format: physicochemical; conditions: EVA ring, 70:30 PBS:EtOH pH 6, 37° C., 14 to 21 day period
# Experimental: At the indicated time points media was collected and measured by HPLC on an Agilent 1100 Series HPLC (Agilent, Forest City, Calif.). […] Results were calculated based on the area under the curve compared to a 5 point calibration curve. Results were expressed as the cumulative release in μg released over the course of the experiment.
# [2] = format: in vivo; conditions: delayed release ring
# Experimental: The rate of hydration of the intravaginal device depends on many factors, including the rate of water penetration into the polymer. The rate of water penetration can be modulated by the osmotic pressure within the polymer. The osmotic pressure can be modulated by adding salt (NaCl, KCl, etc) to the formulation of the drug.
# Estradiol and GnRH can be formulated as described herein. Yet, additional salt is added (300 mmol).
# [3] = In vitro release from double-sided EVA disc (Example 6); format: physicochemical; conditions: 70:30 PBS:EtOH pH 6, 37° C.
# Experimental: Also, the EVA/drug mixtures were combined to form a double-sided disc, comprising estradiol on one side and progesterone on the other. After drying, the discs were evaluated for their release kinetics. […] At the indicated time points, 100% of the media was collected for measurement and 100 ml of release media was replaced. The media was measured by an Agilent 1100 Series HPLC (Agilent). […] Results were calculated based on the area under the curve compared to a 5 point calibration curve and depicted in FIG. 7 as the cumulative percent released.
smiles,measurement,setting,value
"C[C@]12CC[C@@H]3c4ccc(O)cc4CC[C@H]3[C@@H]1CC[C@@H]2O [Estradiol, estradiol]",In vitro release kinetics,[1],stable zero order release kinetics
same,Duration of release from the ring,[2],28 days
same,In vitro release kinetics,[3],independent bi-phasic release kinetics
